# Percent effect of library compounds

Amino acid sequences for entries named in this document (tags omitted).
UniProt P9WFT3, whole entry: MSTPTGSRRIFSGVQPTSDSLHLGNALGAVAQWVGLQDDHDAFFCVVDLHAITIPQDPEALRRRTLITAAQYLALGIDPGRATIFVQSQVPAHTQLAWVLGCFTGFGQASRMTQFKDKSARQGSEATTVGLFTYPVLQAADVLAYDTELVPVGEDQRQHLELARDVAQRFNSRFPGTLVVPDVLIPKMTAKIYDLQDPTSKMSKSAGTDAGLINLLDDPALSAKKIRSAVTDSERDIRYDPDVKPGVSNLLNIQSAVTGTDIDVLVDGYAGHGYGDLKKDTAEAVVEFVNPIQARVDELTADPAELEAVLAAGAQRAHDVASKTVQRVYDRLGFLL
UniProt I6X8D2, whole entry: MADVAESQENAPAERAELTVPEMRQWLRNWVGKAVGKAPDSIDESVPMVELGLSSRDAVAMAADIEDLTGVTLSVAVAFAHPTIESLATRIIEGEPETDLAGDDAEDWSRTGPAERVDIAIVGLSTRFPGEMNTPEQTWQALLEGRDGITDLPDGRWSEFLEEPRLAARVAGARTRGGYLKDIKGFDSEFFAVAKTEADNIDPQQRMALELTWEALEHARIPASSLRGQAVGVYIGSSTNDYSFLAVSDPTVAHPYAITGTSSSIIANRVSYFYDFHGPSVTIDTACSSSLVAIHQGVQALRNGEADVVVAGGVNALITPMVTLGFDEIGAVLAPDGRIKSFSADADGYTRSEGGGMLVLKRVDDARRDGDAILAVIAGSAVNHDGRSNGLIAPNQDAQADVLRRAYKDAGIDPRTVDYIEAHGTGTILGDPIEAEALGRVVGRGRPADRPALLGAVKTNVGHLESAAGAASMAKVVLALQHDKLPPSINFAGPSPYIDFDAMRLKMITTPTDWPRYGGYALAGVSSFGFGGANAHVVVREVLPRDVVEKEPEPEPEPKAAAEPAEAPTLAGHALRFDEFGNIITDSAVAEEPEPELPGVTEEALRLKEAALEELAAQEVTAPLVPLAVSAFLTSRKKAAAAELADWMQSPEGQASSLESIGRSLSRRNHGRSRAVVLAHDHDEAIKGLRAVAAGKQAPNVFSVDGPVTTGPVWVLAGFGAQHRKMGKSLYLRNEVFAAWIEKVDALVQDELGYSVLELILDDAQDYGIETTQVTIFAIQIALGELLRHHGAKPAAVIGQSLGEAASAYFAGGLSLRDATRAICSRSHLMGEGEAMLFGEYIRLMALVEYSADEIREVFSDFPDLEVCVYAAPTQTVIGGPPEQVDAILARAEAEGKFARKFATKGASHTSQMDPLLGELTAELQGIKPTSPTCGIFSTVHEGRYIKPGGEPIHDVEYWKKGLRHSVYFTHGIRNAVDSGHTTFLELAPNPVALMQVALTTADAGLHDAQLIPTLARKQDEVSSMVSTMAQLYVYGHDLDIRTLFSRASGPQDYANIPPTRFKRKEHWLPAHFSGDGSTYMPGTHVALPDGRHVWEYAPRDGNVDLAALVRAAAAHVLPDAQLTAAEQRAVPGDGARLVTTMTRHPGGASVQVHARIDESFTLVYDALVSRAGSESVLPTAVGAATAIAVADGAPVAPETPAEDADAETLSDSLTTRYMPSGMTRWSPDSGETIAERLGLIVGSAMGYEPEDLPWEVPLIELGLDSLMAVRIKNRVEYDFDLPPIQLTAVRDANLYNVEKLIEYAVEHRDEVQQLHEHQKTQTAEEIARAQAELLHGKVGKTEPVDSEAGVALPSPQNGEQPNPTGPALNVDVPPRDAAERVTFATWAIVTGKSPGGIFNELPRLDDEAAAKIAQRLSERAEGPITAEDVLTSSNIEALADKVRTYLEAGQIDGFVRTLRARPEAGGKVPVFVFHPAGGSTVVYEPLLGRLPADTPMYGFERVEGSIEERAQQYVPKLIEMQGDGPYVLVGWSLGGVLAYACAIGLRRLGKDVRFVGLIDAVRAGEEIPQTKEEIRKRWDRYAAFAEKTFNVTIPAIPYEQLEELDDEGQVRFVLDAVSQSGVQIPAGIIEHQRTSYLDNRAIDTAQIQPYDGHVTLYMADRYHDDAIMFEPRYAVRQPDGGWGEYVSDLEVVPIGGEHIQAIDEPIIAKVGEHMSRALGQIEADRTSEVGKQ

Data taken from ChEMBL document CHEMBL3988442, “University of Dundee, Small-Polar-MMV Screening Library” (2021).

MtTrpRS: 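Enzyme assay of tryptophanyl-tRNA synthetase; the read-out is not stated. Target: Tryptophan-tRNA ligase, Mycobacterium tuberculosis (UniProt P9WFT3). Tested at 10 µM. Higher most likely means stronger inhibition; the record gives no direction and few retests gave an IC50. About 65,000 compounds were tested under these conditions; 0.098% (about 64) showed 50% or more at least once.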
Pks13 thioesterase: 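Enzyme assay of the thioesterase domain of polyketide synthase 13; the read-out is not stated. Target: Polyketide synthase Pks13, Mycobacterium tuberculosis (UniProt I6X8D2). Concentration: 30 µM. The record gives no direction; the compounds picked for IC50 retests had high values, so higher reads as stronger inhibition. About 67,000 compounds were tested under these conditions; 0.46% (about 300) showed 50% or more at least once.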

Each number is a percent effect as filed.
How 0% and 100% were set is not recorded. Most values in the screen are low, and negative values occur.
This is an unselected part of the compounds tested.

Result for CC(C)(C)n1nc(C(=O)NC2CCN(CC(N)=O)CC2)cc1C1CC1 was MtTrpRS: 0.5693%; Pks13 thioesterase: 4.972%.
Result for Cc1cc(NCc2ccc(CS(N)(=O)=O)cc2)nc(C)n1 was MtTrpRS: 4.059%; Pks13 thioesterase: -11.66%.
Result for Cc1cccc2c1NC1(CCOCC1)NC2=O was MtTrpRS: -2.591%; Pks13 thioesterase: -14.2%.
Result for Cc1nc(O)cc([C@@H]2CN(C(=O)C3CC3)C[C@H]2c2ccccc2F)n1 was MtTrpRS: 2.243%; Pks13 thioesterase: -4.721%.
Result for O=C(CN1CCCC(O)C1)NC(=O)NCc1cccs1 (stereo not given) was MtTrpRS: -6.462%; Pks13 thioesterase: -18%.
Result for CN(C)C(=O)CN1CCOCC2(C1)CN(c1ncccn1)CCO2 (stereo not given) was Pks13 thioesterase: -41.08%.
Result for Cc1[nH]ncc1C(=O)N1CCCC(c2ccn[nH]2)C1 (stereo not given) was MtTrpRS: -7.969%.
Result for Cc1nn(C)c2nc(-c3ccccn3)nc(NCCC3CCCN3C)c12 (stereo not given) was MtTrpRS: -2.834%; Pks13 thioesterase: -12.73%.
Result for CC(C)n1cc(CN2CCCN(C(=O)C3CCCN3C)CC2)cn1 (stereo not given) was MtTrpRS: -4.856%; Pks13 thioesterase: -0.8445%.
Result for Cc1ccc(NS(=O)(=O)c2cc3c(c(C(=O)O)c2)OCCO3)cc1F was MtTrpRS: -3.323%; Pks13 thioesterase: -18.29%.
Result for COc1ccc(CN2CCC3(CCCN(c4ncc(F)cn4)C3)C2)cc1 (stereo not given) was MtTrpRS: 6.188%; Pks13 thioesterase: 3.143%.
Result for CC(C)N1CCN(C(=O)C(C)n2cncn2)CC1 (stereo not given) was MtTrpRS: -0.142%; Pks13 thioesterase: -6.077%.
Result for CC(=O)N1CCCN(C(=O)NC(C)Cn2cccn2)CC1 (stereo not given) was MtTrpRS: -3.39%; Pks13 thioesterase: -8.394%.
Result for CC(C)n1c(=O)nc2n1C(=O)N(c1ccc(Br)cc1)C2 was MtTrpRS: 0.7703%; Pks13 thioesterase: -17.1%.
Result for COc1ccc(CNC(=O)Nc2cccnc2N2CCCC2)cc1 was MtTrpRS: 13.84%; Pks13 thioesterase: -16.17%.
Result for O=C(Cn1cc(Cl)cn1)N1CCCC(c2ccn[nH]2)C1 (stereo not given) was MtTrpRS: -6.275%; Pks13 thioesterase: -4.338%.
Result for COc1c(Br)c(CC2CC(CO)=NO2)c(OC)c2c1OCO2 (stereo not given) was MtTrpRS: 2.419%; Pks13 thioesterase: -5.042%.
Result for Cn1cc(N2C(=O)CC[C@@H]3[C@H]2CCN3C(=O)c2cscn2)cn1 was MtTrpRS: -3.867%; Pks13 thioesterase: -6.63%.
Result for COc1ccc(COCC(=O)NC2CCc3nc(C)cn3C2)cc1 (stereo not given) was MtTrpRS: 3.259%; Pks13 thioesterase: -13.62%.
Result for c1ccc(CCN2CCc3c(ncn3C3CC3)C2)nc1 was MtTrpRS: 0.4301%; Pks13 thioesterase: -8.794%.
Result for Cc1c(CNC(=O)C2CCCN2C(=O)C2CC2)oc2ccccc12 (stereo not given) was MtTrpRS: 1.511%; Pks13 thioesterase: 11.4%.
Result for O=S1(=O)NC(c2ccnc(N3CCCCC3)n2)=Nc2ccccc21 was MtTrpRS: 15.72%; Pks13 thioesterase: -18.19%.
Result for Cn1cc(CN2CCC[C@]3(C(=O)O)CN(c4ncccn4)C[C@@H]3C2)cn1 was MtTrpRS: 0.4647%; Pks13 thioesterase: -33.71%.
Result for CCN(Cc1noc(C)n1)C(=O)CCc1scnc1C was MtTrpRS: 7.376%; Pks13 thioesterase: -2.747%.
Result for O=C(c1cc(C2CC2)[nH]n1)N1CCN(Cc2ccccc2)CC1 was MtTrpRS: -9.644%; Pks13 thioesterase: -3.969%.
Result for COc1cccc(C(=O)N2CCc3c(nc(N)[nH]c3=O)C2)c1C was MtTrpRS: 1.356%; Pks13 thioesterase: 79.45%.
Result for CC(C)N1CCCC1c1csc(N)n1 (stereo not given) was MtTrpRS: -9.631%; Pks13 thioesterase: 9.456%.
Result for Cc1ccccc1C(C)NC(=O)c1ccc(=O)n(C)c1 (stereo not given) was MtTrpRS: -2.564%; Pks13 thioesterase: 0.6011%.
Result for CCc1c(C)sc2nc3n(CCN(C)C)nc(SC)n3c(=O)c12 was MtTrpRS: 0.678%; Pks13 thioesterase: -8.51%.
Result for Cc1cc(N2Cc3cnc(CC(C)C)nc3C2)nc(N)n1 was MtTrpRS: -4.425%; Pks13 thioesterase: -11.81%.
Result for COc1ccc2c(c1)CCCC2CC(=O)O (stereo not given) was MtTrpRS: -1.727%; Pks13 thioesterase: -10.28%.
Result for O=C(c1ccccn1)N1CCn2cnc(COCC3CC3)c2C1 was MtTrpRS: -5.402%; Pks13 thioesterase: -4.8%.
Result for CN(C)Cc1ccc(C2CCCCN2C(=O)c2cccnn2)cc1 (stereo not given) was MtTrpRS: -8.992%; Pks13 thioesterase: -10.64%.

For reference, 2 entries once more:

SMILES,MtTrpRS,Pks13 thioesterase
COc1cccc(C(=O)N2CCc3c(nc(N)[nH]c3=O)C2)c1C,1.356,79.45
CCc1c(C)sc2nc3n(CCN(C)C)nc(SC)n3c(=O)c12,0.678,-8.51